The list shows a part of the results.
Columns and labels:
Assay in all cases: log2 fold change, soluble protein after heating vs DMSO (PISA); higher = thermal stabilisation; K562 cells, 10 uM, 30 min; active = over 0.2 and 3.5 SD of the protein, either way, in both replicates (recomputed)
bafetinib = compound: Cc1ccc(NC(=O)c2ccc(CN3CC[C@H](N(C)C)C3)c(C(F)(F)F)c2)cc1Nc1nccc(-c2cncnc2)n1 [bafetinib]
Summary of the method: (§1)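 Thermal stability values are relative to control samples and come from duplicates. They are expressed as log2 fold changes. For measurement, K562 cells (2×10^6 cells/mL) received 10 μM compound for 30 min, and aliquots were heated for 3 min over 48°C-58°C, pooled, and extracted at 4°C in PBS with 0.5% NP-40. Soluble protein, the supernatant after 21,000xg for 90 min, was quantified by TMTpro 16plex LC-MS/MS with equalised channel sums.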

Protein sequences, listed by entry. Tags and fused reporters are not part of them. Lines headed by an entry give the natural chain unless they say otherwise; changes in a name come on top.
UniProt Q7Z7A3: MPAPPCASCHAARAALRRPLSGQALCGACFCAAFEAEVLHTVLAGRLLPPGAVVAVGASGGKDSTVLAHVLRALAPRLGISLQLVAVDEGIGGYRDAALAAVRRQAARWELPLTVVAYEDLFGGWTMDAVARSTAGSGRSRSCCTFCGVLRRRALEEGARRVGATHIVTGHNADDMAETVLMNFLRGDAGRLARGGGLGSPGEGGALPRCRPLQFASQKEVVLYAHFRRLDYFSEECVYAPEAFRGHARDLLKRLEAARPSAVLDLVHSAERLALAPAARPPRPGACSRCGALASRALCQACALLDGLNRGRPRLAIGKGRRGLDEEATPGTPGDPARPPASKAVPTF
UniProt P32321: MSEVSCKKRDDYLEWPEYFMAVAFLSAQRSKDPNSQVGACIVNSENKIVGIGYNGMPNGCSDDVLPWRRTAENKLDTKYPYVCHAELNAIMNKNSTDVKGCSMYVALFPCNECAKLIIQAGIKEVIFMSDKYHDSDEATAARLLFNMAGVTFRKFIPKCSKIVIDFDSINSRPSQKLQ
UniProt P27707: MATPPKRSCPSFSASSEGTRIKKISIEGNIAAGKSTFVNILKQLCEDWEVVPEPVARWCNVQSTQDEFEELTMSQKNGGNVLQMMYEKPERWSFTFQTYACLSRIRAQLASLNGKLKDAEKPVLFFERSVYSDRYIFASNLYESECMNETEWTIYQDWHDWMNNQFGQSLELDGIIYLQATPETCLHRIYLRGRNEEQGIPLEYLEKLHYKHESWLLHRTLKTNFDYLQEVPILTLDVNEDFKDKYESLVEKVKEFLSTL
UniProt Q9UJW0, whole entry, looked up: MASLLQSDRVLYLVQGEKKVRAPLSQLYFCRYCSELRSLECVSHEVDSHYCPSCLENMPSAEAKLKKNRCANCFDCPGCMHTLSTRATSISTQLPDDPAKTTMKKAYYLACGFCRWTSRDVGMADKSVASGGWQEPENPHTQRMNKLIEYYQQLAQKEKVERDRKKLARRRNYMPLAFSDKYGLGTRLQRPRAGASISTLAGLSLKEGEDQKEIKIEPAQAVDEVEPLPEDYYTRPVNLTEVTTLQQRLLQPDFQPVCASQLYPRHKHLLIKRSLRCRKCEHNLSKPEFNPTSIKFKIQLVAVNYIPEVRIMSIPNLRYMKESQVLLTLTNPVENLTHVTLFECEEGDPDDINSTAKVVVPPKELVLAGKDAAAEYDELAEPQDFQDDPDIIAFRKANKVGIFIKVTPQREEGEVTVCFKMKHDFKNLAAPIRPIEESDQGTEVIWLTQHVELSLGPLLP
UniProt Q13619, whole entry, looked up: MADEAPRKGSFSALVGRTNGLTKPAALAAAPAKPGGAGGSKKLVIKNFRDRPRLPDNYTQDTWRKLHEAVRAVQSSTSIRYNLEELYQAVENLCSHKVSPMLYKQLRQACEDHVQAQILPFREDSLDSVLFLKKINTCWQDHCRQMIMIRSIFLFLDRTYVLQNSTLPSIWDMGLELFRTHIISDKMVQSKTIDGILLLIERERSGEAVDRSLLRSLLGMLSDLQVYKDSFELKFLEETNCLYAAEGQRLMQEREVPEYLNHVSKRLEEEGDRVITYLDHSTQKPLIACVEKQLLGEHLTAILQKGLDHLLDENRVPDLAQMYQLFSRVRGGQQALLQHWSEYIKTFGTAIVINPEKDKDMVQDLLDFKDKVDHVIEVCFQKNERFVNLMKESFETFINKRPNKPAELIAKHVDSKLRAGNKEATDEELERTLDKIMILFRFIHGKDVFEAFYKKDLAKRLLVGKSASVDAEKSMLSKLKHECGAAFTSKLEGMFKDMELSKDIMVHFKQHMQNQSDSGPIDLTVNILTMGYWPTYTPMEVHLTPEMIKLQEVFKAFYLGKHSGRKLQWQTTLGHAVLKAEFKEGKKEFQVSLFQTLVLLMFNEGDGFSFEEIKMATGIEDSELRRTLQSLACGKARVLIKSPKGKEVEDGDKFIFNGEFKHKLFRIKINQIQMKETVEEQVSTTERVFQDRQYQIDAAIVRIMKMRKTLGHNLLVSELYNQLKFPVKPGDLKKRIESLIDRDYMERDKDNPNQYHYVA
UniProt Q9NRF8: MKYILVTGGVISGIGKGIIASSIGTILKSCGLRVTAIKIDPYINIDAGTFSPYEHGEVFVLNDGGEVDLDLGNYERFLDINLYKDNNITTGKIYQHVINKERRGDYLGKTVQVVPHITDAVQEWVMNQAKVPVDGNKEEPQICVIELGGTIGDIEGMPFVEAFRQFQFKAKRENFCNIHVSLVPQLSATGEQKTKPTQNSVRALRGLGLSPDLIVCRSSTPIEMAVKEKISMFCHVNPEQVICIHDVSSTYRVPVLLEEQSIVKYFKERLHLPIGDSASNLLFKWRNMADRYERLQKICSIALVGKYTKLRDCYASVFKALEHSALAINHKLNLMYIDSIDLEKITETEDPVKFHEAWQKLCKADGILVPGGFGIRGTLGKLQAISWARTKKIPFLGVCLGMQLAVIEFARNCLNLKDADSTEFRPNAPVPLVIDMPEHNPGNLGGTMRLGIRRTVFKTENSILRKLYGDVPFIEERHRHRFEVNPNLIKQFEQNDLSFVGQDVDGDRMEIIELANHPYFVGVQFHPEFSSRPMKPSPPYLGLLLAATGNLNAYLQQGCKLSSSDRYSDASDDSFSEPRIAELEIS
UniProt Q9H467: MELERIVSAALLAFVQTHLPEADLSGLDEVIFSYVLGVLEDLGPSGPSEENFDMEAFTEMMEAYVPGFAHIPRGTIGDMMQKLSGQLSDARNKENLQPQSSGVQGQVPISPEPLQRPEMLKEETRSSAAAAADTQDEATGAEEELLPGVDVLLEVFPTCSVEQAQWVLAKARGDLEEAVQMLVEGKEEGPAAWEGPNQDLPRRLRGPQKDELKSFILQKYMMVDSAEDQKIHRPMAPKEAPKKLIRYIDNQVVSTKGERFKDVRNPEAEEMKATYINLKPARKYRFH
UniProt Q69YN2: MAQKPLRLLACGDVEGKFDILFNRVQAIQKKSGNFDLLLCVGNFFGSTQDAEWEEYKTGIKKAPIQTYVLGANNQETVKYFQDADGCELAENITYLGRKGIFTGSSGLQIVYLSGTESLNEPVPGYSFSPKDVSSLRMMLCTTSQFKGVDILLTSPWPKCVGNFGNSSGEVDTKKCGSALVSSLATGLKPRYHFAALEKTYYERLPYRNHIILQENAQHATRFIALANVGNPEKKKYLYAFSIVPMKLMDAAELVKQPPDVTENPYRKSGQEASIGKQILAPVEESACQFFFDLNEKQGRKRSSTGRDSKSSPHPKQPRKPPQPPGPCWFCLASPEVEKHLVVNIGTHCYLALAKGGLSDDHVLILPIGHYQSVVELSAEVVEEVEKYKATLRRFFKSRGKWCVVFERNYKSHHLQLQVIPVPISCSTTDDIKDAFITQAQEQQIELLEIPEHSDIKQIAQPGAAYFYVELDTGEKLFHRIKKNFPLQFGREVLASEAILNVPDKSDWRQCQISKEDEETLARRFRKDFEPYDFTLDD
UniProt Q9BQA9: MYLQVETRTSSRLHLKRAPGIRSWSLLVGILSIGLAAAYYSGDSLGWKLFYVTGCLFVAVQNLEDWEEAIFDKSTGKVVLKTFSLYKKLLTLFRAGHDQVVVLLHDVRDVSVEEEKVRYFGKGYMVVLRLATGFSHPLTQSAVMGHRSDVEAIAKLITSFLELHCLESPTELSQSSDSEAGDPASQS
UniProt E9PJD7, whole entry, looked up: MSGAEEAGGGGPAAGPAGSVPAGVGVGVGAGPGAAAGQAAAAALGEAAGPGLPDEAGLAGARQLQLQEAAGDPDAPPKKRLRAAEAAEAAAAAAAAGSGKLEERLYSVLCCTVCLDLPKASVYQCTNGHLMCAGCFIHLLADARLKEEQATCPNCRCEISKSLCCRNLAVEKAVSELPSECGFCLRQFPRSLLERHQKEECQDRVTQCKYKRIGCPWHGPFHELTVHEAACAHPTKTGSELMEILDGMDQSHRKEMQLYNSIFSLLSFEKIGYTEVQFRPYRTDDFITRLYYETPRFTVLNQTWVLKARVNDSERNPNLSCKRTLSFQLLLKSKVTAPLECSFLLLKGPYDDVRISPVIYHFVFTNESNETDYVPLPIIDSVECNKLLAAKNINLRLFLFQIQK
UniProt Q13948: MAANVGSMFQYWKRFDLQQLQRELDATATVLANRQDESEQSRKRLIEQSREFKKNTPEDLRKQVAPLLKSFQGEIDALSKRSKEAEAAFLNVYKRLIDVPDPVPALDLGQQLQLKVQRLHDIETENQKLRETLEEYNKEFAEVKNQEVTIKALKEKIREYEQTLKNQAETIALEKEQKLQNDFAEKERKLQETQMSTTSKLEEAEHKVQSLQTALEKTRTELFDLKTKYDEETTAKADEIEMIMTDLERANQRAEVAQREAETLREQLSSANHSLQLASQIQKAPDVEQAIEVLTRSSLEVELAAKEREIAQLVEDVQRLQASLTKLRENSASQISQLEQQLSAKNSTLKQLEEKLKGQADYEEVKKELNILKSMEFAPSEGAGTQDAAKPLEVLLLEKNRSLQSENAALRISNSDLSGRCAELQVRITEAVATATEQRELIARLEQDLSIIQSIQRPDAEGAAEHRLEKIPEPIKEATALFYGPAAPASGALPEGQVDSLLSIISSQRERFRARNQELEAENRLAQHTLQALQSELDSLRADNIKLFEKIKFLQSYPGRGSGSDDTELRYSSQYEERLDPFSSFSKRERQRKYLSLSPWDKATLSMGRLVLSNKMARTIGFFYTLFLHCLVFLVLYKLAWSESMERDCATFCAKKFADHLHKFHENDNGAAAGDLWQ
UniProt Q9UJU6: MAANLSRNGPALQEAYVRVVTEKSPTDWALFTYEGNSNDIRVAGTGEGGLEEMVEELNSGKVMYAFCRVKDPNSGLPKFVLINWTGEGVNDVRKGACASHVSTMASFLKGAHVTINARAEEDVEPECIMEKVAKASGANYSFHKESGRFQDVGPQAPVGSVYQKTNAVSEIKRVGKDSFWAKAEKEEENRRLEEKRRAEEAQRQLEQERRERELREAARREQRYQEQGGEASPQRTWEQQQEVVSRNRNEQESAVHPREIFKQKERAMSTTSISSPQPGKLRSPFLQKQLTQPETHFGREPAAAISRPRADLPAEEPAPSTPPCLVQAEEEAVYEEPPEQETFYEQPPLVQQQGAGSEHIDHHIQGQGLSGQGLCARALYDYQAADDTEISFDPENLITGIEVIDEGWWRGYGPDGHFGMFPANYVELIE
UniProt O43310: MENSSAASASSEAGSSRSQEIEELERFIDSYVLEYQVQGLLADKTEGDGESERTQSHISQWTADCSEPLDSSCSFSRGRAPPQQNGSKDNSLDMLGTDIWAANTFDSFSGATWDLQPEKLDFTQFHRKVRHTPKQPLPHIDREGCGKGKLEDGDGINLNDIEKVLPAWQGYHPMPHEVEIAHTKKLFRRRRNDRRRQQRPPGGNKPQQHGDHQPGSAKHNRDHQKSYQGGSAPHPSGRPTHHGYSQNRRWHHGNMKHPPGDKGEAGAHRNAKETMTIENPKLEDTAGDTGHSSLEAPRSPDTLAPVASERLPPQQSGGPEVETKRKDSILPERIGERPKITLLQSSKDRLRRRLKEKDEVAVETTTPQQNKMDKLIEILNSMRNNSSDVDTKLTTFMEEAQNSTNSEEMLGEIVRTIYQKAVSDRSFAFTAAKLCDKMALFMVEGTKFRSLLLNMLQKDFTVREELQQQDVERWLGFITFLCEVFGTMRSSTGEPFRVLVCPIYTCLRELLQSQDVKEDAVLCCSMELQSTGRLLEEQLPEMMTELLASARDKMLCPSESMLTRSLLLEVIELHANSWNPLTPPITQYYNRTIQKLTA

[1] = compound: Cc1cccc(CC(=O)N2CCc3c2ccc(-c2cn(C)c4ncnc(N)c24)c3F)n1
Summary of the method: as §1

nilotinib = compound: Cc1cn(-c2cc(NC(=O)c3ccc(C)c(Nc4nccc(-c5cccnc5)n4)c3)cc(C(F)(F)F)c2)cn1 [nilotinib]
Summary of the method: as §1

[2] = compound: Cc1nc(Nc2n[nH]c3c2CN(C(=O)N[C@H](CN(C)C)c2ccccc2)C3(C)C)c2sccc2n1
Summary of the method: as §1

dasatinib = compound: Cc1nc(Nc2ncc(C(=O)Nc3c(C)cccc3Cl)s2)cc(N2CCN(CCO)CC2)n1 [dasatinib]
Summary of the method: as §1

[3] = compound: Cc1ncc(-c2ccnc(Nc3ccc(S(C)(=O)=O)cc3)n2)n1C(C)C
Summary of the method: as §1

[4] = compound: Cn1cc(-c2ccc3c(c2)CCN3C(=O)Cc2cccc(C(F)(F)F)c2)c2c(N)ncnc21
Summary of the method: as §1

[5] = compound: Cn1cc(-c2ccc3nnc(C(F)(F)c4ccc5ncccc5c4)n3n2)cn1
Summary of the method: as §1

tipifarnib = compound: Cn1cncc1[C@@](N)(c1ccc(Cl)cc1)c1ccc2c(c1)c(-c1cccc(Cl)c1)cc(=O)n2C [tipifarnib]
Summary of the method: as §1

mubritinib = compound: FC(F)(F)c1ccc(/C=C/c2nc(COc3ccc(CCCCn4ccnn4)cc3)co2)cc1 [mubritinib]
Summary of the method: as §1

[6] = compound: NC(=O)Nc1cc(-c2cccc(F)c2)sc1C(=O)N[C@H]1CCCNC1
Summary of the method: as §1

[7] = compound: NC(=O)c1cnc(N[C@@H]2CCCC[C@@H]2N)nc1Nc1cccc(-n2nccn2)c1
Summary of the method: as §1

[8] = compound: NC1(c2ccc(-c3nc4ccn5c(=O)[nH]nc5c4cc3-c3ccccc3)cc2)CCC1
Summary of the method: as §1

[9] = compound: NCC(=O)Nc1ccc(-n2nc(C(F)(F)F)cc2-c2ccc3c(ccc4ccccc43)c2)cc1
Summary of the method: as §1

entinostat = compound: Nc1ccccc1NC(=O)c1ccc(CNC(=O)OCc2cccnc2)cc1 [entinostat]
Summary of the method: as §1

vorinostat = compound: O=C(CCCCCCC(=O)Nc1ccccc1)NO [vorinostat]
Summary of the method: as §1

citarinostat = compound: O=C(CCCCCCNC(=O)c1cnc(N(c2ccccc2)c2ccccc2Cl)nc1)NO [citarinostat]
Summary of the method: as §1

silmitasertib = compound: O=C(O)c1ccc2c(c1)nc(Nc1cccc(Cl)c1)c1ccncc12 [silmitasertib]
Summary of the method: as §1

[10] = compound: O=C1NC(=O)C(c2cnc3ccccn23)=C1c1cn2c3c(cc(F)cc13)CN(C(=O)N1CCCCC1)CC2
Summary of the method: as §1

[11] = compound: c1cc(OCCN2CCCCC2)cc(-c2n[nH]c3ccc(-c4nnc[nH]4)cc23)c1
Summary of the method: as §1

| Target | log2 fold change (bafetinib) | log2 fold change [1] | log2 fold change (nilotinib) | log2 fold change [2] | log2 fold change (dasatinib) | log2 fold change [3] | log2 fold change [4] | log2 fold change [5] | log2 fold change (tipifarnib) | log2 fold change (mubritinib) | log2 fold change [6] | log2 fold change [7] | log2 fold change [8] | log2 fold change [9] | log2 fold change (entinostat) | log2 fold change (vorinostat) | log2 fold change (citarinostat) | log2 fold change (silmitasertib) | log2 fold change [10] | log2 fold change [11] |
| --- | --- | --- | --- | --- | --- | --- | --- | --- | --- | --- | --- | --- | --- | --- | --- | --- | --- | --- | --- | --- |
| CYB5R2 (UniProt Q6BCY4) | inactive: -0.041 | inactive: -0.041 | inactive: -0.013 | inactive: 0.017 | inactive: 0.045 | inactive: -0.024 | inactive: -0.01 | inactive: 0.018 | inactive: 0.047 | inactive: 0.053 | inactive: -0.003 | inactive: 0.032 | inactive: 0.009 | inactive: -0.021 | inactive: -0.02 | inactive: -0.096 | inactive: -0.001 | inactive: -0.005 | inactive: -0.065 | inactive: -0.017 |
| CTU1 (UniProt Q7Z7A3) | inactive: -0.024 | inactive: 0.067 | inactive: -0.062 | inactive: -0.03 | inactive: -0.145 | inactive: -0.03 | inactive: 0.035 | inactive: 0.02 | inactive: -0.043 | inactive: 0.067 | inactive: 0.038 | inactive: -0.015 | inactive: -0.199 | inactive: -0.142 | inactive: 0.023 | inactive: 0.075 | inactive: 0.049 | inactive: 0.021 | inactive: 0 | inactive: 0.008 |
| DCTD isoform 2 (UniProt P32321) | inactive: -0.057 | inactive: -0.012 | inactive: -0.02 | inactive: 0.007 | inactive: 0.002 | inactive: 0.002 | inactive: 0.029 | inactive: -0.016 | inactive: -0.032 | inactive: 0.058 | inactive: 0.012 | inactive: -0.02 | inactive: -0.055 | inactive: 0.046 | inactive: -0.005 | inactive: 0.003 | inactive: -0.001 | inactive: -0.031 | inactive: -0.017 | inactive: -0.063 |
| DCK (UniProt P27707) | inactive: -0.108 | inactive: -0.013 | inactive: -0.039 | inactive: 0.175 | inactive: 0.014 | inactive: 0.021 | inactive: 0.026 | inactive: 0.006 | inactive: -0.04 | inactive: 0.036 | inactive: -0.017 | inactive: 0.003 | inactive: 0.002 | inactive: 0.097 | inactive: 0 | inactive: -0.082 | inactive: 0.02 | inactive: -0.023 | inactive: 0.019 | inactive: 0.146 |
| DCTN4 (UniProt Q9UJW0) | inactive: -0.053 | inactive: 0 | inactive: -0.026 | inactive: 0 | inactive: -0.02 | inactive: -0.007 | inactive: -0.006 | inactive: -0.03 | inactive: 0.02 | inactive: 0.037 | inactive: 0.102 | inactive: 0.032 | inactive: -0.031 | inactive: 0.021 | inactive: -0.109 | inactive: -0.013 | inactive: -0.046 | inactive: 0.025 | inactive: -0.03 | inactive: -0.108 |
| CUL4A (UniProt Q13619) | inactive: -0.035 | inactive: 0.03 | inactive: -0.033 | inactive: -0.024 | inactive: -0.059 | inactive: -0.002 | inactive: 0.011 | inactive: 0 | inactive: -0.082 | inactive: 0.051 | inactive: -0.02 | inactive: -0.026 | inactive: -0.064 | inactive: -0.068 | inactive: 0.034 | inactive: 0.003 | inactive: 0.045 | inactive: 0.016 | inactive: -0.058 | inactive: -0.022 |
| CTPS2 (UniProt Q9NRF8) | inactive: -0.012 | inactive: -0.013 | inactive: -0.009 | inactive: 0.007 | inactive: 0.03 | inactive: -0.01 | inactive: -0.006 | inactive: 0.006 | inactive: -0.016 | inactive: 0.059 | inactive: -0.012 | inactive: 0.012 | inactive: -0.023 | inactive: 0.027 | inactive: -0.023 | inactive: 0.02 | inactive: 0.037 | inactive: 0.019 | inactive: -0.02 | inactive: -0.005 |
| CUEDC2 (UniProt Q9H467) | inactive: -0.072 | inactive: 0.003 | inactive: -0.006 | inactive: -0.045 | inactive: 0.049 | inactive: -0.055 | inactive: 0.02 | inactive: -0.009 | inactive: 0.028 | inactive: 0.042 | inactive: 0 | inactive: -0.105 | inactive: -0.043 | inactive: -0.056 | inactive: -0.009 | inactive: -0.039 | inactive: 0.096 | inactive: 0.008 | inactive: -0.055 | inactive: 0.002 |
| CWF19L1 (UniProt Q69YN2) | inactive: 0.025 | inactive: -0.015 | inactive: 0.011 | inactive: -0.011 | inactive: -0.056 | inactive: 0.026 | inactive: -0.076 | inactive: -0.016 | inactive: -0.012 | inactive: 0.056 | inactive: 0.072 | inactive: 0.027 | inactive: -0.051 | inactive: -0.067 | inactive: 0.009 | inactive: -0.034 | inactive: 0.012 | inactive: 0.016 | inactive: -0.053 | inactive: -0.019 |
| CYBC1 (UniProt Q9BQA9) | inactive: -0.124 | inactive: -0.032 | inactive: -0.051 | inactive: -0.014 | inactive: 0.015 | inactive: -0.006 | inactive: 0.041 | inactive: 0.05 | inactive: -0.022 | inactive: 0.088 | inactive: -0.013 | inactive: -0.029 | inactive: -0.021 | inactive: 0.009 | inactive: -0.013 | inactive: 0 | inactive: 0.032 | inactive: 0.053 | inactive: 0.015 | inactive: -0.08 |
| CYHR1 (UniProt E9PJD7) | inactive: -0.033 | inactive: 0.015 | inactive: 0.043 | inactive: -0.038 | inactive: 0.065 | inactive: -0.034 | inactive: 0.002 | inactive: 0.063 | inactive: 0.066 | inactive: 0.115 | inactive: -0.029 | inactive: -0.028 | inactive: 0.072 | inactive: 0.124 | inactive: 0.006 | inactive: -0.001 | inactive: 0.022 | inactive: 0 | inactive: 0.037 | inactive: -0.061 |
| CYB5B, A0A499FJ32 | inactive: 0.07 | inactive: 0.025 | inactive: -0.111 | inactive: 0.112 | inactive: 0.089 | inactive: -0.06 | inactive: 0.03 | inactive: 0.032 | inactive: -0.284 | inactive: -0.019 | inactive: 0.004 | inactive: 0.013 | inactive: 0.095 | inactive: 0.005 | inactive: 0.032 | inactive: -0.02 | inactive: -0.087 | inactive: 0.023 | inactive: 0.005 | inactive: -0.097 |
| CUX1 isoform 2 (UniProt Q13948) | inactive: 0.051 | inactive: 0.042 | inactive: -0.001 | inactive: -0.029 | inactive: -0.084 | inactive: 0.078 | inactive: 0.072 | inactive: 0.063 | inactive: 0.062 | inactive: 0.007 | inactive: -0.027 | inactive: -0.031 | inactive: -0.033 | inactive: -0.026 | active: 0.343 | inactive: 0.076 | inactive: 0.137 | inactive: -0.016 | inactive: -0.047 | inactive: -0.03 |
| CTNNA2 (UniProt P26232) | inactive: -0.099 | inactive: 0.05 | inactive: 0.017 | inactive: -0.039 | inactive: -0.033 | inactive: -0.029 | inactive: 0.055 | inactive: -0.001 | inactive: 0.023 | inactive: 0.048 | inactive: -0.013 | inactive: -0.013 | inactive: -0.112 | inactive: -0.008 | inactive: -0.019 | inactive: 0.047 | inactive: 0.064 | inactive: -0.032 | inactive: -0.021 | inactive: -0.018 |
| DBNL isoform 3 (UniProt Q9UJU6) | inactive: 0.048 | inactive: -0.007 | inactive: -0.05 | inactive: -0.071 | inactive: -0.098 | inactive: -0.013 | inactive: -0.003 | inactive: 0.057 | inactive: -0.096 | inactive: 0.032 | inactive: 0.021 | inactive: -0.022 | inactive: -0.109 | inactive: -0.061 | inactive: -0.003 | inactive: -0.01 | inactive: 0.063 | inactive: 0.058 | inactive: 0.012 | inactive: 0.007 |
| CTIF isoform 2 (UniProt O43310) | inactive: -0.267 | inactive: 0.001 | inactive: -0.044 | inactive: 0.015 | inactive: 0.055 | inactive: 0.204 | inactive: 0.015 | inactive: 0.007 | inactive: -0.022 | inactive: 0.002 | inactive: 0.016 | inactive: 0.029 | inactive: -0.092 | inactive: -0.037 | inactive: -0.025 | inactive: -0.066 | inactive: 0.155 | inactive: 0.099 | inactive: -0.064 | inactive: -0.119 |

4 successive records already listed, quoted:

| Target | log2 fold change (bafetinib) | log2 fold change [1] | log2 fold change (nilotinib) | log2 fold change [2] | log2 fold change (dasatinib) | log2 fold change [3] | log2 fold change [4] | log2 fold change [5] | log2 fold change (tipifarnib) | log2 fold change (mubritinib) | log2 fold change [6] | log2 fold change [7] | log2 fold change [8] | log2 fold change [9] | log2 fold change (entinostat) | log2 fold change (vorinostat) | log2 fold change (citarinostat) | log2 fold change (silmitasertib) | log2 fold change [10] | log2 fold change [11] |
| --- | --- | --- | --- | --- | --- | --- | --- | --- | --- | --- | --- | --- | --- | --- | --- | --- | --- | --- | --- | --- |
| CYB5B, A0A499FJ32 | inactive: 0.07 | inactive: 0.025 | inactive: -0.111 | inactive: 0.112 | inactive: 0.089 | inactive: -0.06 | inactive: 0.03 | inactive: 0.032 | inactive: -0.284 | inactive: -0.019 | inactive: 0.004 | inactive: 0.013 | inactive: 0.095 | inactive: 0.005 | inactive: 0.032 | inactive: -0.02 | inactive: -0.087 | inactive: 0.023 | inactive: 0.005 | inactive: -0.097 |
| CUX1 isoform 2 (UniProt Q13948) | inactive: 0.051 | inactive: 0.042 | inactive: -0.001 | inactive: -0.029 | inactive: -0.084 | inactive: 0.078 | inactive: 0.072 | inactive: 0.063 | inactive: 0.062 | inactive: 0.007 | inactive: -0.027 | inactive: -0.031 | inactive: -0.033 | inactive: -0.026 | active: 0.343 | inactive: 0.076 | inactive: 0.137 | inactive: -0.016 | inactive: -0.047 | inactive: -0.03 |
| CTNNA2 (UniProt P26232) | inactive: -0.099 | inactive: 0.05 | inactive: 0.017 | inactive: -0.039 | inactive: -0.033 | inactive: -0.029 | inactive: 0.055 | inactive: -0.001 | inactive: 0.023 | inactive: 0.048 | inactive: -0.013 | inactive: -0.013 | inactive: -0.112 | inactive: -0.008 | inactive: -0.019 | inactive: 0.047 | inactive: 0.064 | inactive: -0.032 | inactive: -0.021 | inactive: -0.018 |
| DBNL isoform 3 (UniProt Q9UJU6) | inactive: 0.048 | inactive: -0.007 | inactive: -0.05 | inactive: -0.071 | inactive: -0.098 | inactive: -0.013 | inactive: -0.003 | inactive: 0.057 | inactive: -0.096 | inactive: 0.032 | inactive: 0.021 | inactive: -0.022 | inactive: -0.109 | inactive: -0.061 | inactive: -0.003 | inactive: -0.01 | inactive: 0.063 | inactive: 0.058 | inactive: 0.012 | inactive: 0.007 |

Source: the supplement of paper PMC10849652
